Test [1] has as its target ETV4 (ETS transcription factor ETV4), endogenous (human (endogenous in A549, H1299, HEK293T)) (UniProt P43268). As to the kind of experiment: co-IP; IP of endogenous ETV4 from chromatin-bound (Chrom.) proteins of A549 and H1299 cells, immunoblot.
Test [2] shares this target. Put plainly: co-IP; IP of the endogenous protein (anti-ETV4, anti-SSRP1 or anti-SUPT16H) from whole-cell RIPA lysates of A549 and H1299 cells, 4 °C overnight, Protein A/G Plus-Agarose, immunoblot; also cells synchronised by double thymidine block and released.

Sequences of proteins named here, by UniProt entry; tags and fusion partners are left off.
UniProt P43268: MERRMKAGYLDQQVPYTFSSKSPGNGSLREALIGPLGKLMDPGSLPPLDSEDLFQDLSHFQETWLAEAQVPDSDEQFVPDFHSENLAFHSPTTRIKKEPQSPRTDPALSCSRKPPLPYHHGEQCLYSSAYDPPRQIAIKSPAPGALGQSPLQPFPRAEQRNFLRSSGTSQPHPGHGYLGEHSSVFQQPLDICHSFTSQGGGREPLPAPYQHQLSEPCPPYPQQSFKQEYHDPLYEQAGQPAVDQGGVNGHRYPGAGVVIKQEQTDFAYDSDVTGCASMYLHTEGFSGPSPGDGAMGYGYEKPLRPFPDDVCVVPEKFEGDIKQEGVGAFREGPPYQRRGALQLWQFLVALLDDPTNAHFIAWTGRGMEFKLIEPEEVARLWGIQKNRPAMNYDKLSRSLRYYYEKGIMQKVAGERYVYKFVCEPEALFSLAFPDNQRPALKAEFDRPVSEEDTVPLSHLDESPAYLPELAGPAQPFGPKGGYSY

We go through five molecules from paper PMC12462987.

No constants are given. Whether binding was seen depends on the method and setting. Binding seen in cells or lysates may run through a third protein. Some entries that bind do so weakly or less than the wild type.

B1: MCM5, endogenous (protein, UniProt P33992 1-734)
chain: MSGFDDPGIFYSDSFGGDAQADEGQARKSQLQRRFKEFLRQYRVGTDRTGFTFKYRDELKRHYNLGEYWIEVEMEDLASFDEDLADYLYKQPAEHLQLLEEAAKEVADEVTRPRPSGEEVLQDIQVMLKSDASPSSIRSLKSDMMSHLVKIPGIIIAASAVRAKATRISIQCRSCRNTLTNIAMRPGLEGYALPRKCNTDQAGRPKCPLDPYFIMPDKCKCVDFQTLKLQELPDAVPHGEMPRHMQLYCDRYLCDKVVPGNRVTIMGIYSIKKFGLTTSRGRDRVGVGIRSSYIRVLGIQVDTDGSGRSFAGAVSPQEEEEFRRLAALPNVYEVISKSIAPSIFGGTDMKKAIACLLFGGSRKRLPDGLTRRGDINLLMLGDPGTAKSQLLKFVEKCSPIGVYTSGKGSSAAGLTASVMRDPSSRNFIMEGGAMVLADGGVVCIDEFDKMREDDRVAIHEAMEQQTISIAKAGITTTLNSRCSVLAAANSVFGRWDETKGEDNIDFMPTILSRFDMIFIVKDEHNEERDVMLAKHVITLHVSALTQTQAVEGEIDLAKLKKFIAYCRVKCGPRLSAEAAEKLKNRYIIMRSGARQHERDSDRRSSIPITVRQLEAIVRIAEALSKMKLQPFATEADVEEALRLFQVSTLDAALSGTLSGVEGFTSQEDQEMLSRIEKQLKRRFAIGSQVSEHSIIKDFTKQKYPEHAIHKVLQLMLRRGEIQHRMQRKVLYRLK
Take B1: the binding entry in test [1] and in test [2] was “binds” throughout.

B2: ORC3, endogenous (protein, UniProt Q9UBD5 1-711)
chain: MATSSMSKGCFVFKPNSKKRKISLPIEDYFNKGKNEPEDSKLRFETYQLIWQQMKSENERLQEELNKNLFDNLIEFLQKSHSGFQKNSRDLGGQIKLREIPTAALVLGVNVTDHDLTFGSLTEALQNNVTPYVVSLQAKDCPDMKHFLQKLISQLMDCCVDIKSKEEESVHVTQRKTHYSMDSLSSWYMTVTQKTDPKMLSKKRTTSSQWQSPPVVVILKDMESFATKVLQDFIIISSQHLHEFPLILIFGIATSPIIIHRLLPHAVSSLLCIELFQSLSCKEHLTTVLDKLLLTTQFPFKINEKVLQVLTNIFLYHDFSVQNFIKGLQLSLLEHFYSQPLSVLCCNLPEAKRRINFLSNNQCENIRRLPSFRRYVEKQASEKQVALLTNERYLKEETQLLLENLHVYHMNYFLVLRCLHKFTSSLPKYPLGRQIRELYCTCLEKNIWDSEEYASVLQLLRMLAKDELMTILEKCFKVFKSYCENHLGSTAKRIEEFLAQFQSLDETKEEEDASGSQPKGLQKTDLYHLQKSLLEMKELRRSKKQTKFEVLRENVVNFIDCLVREYLLPPETQPLHEVVYFSAAHALREHLNAAPRIALHTALNNPYYYLKNEALKSEEGCIPNIAPDICIAYKLHLECSRLINLVDWSEAFATVVTAAEKMDANSATSEEMNEIIHARFIRAVSELELLGFIKPTKQKTDHVARLTWGGC
For the molecule B2, the binding result in test [2] was “binds”.

B3: MCM3, endogenous (protein, UniProt P25205 1-808)
chain: MAGTVVLDDVELREAQRDYLDFLDDEEDQGIYQSKVRELISDNQYRLIVNVNDLRRKNEKRANRLLNNAFEELVAFQRALKDFVASIDATYAKQYEEFYVGLEGSFGSKHVSPRTLTSCFLSCVVCVEGIVTKCSLVRPKVVRSVHYCPATKKTIERRYSDLTTLVAFPSSSVYPTKDEENNPLETEYGLSVYKDHQTITIQEMPEKAPAGQLPRSVDVILDDDLVDKAKPGDRVQVVGTYRCLPGKKGGYTSGTFRTVLIACNVKQMSKDAQPSFSAEDIAKIKKFSKTRSKDIFDQLAKSLAPSIHGHDYVKKAILCLLLGGVERDLENGSHIRGDINILLIGDPSVAKSQLLRYVLCTAPRAIPTTGRGSSGVGLTAAVTTDQETGERRLEAGAMVLADRGVVCIDEFDKMSDMDRTAIHEVMEQGRVTIAKAGIHARLNARCSVLAAANPVYGRYDQYKTPMENIGLQDSLLSRFDLLFIMLDQMDPEQDREISDHVLRMHRYRAPGEQDGDAMPLGSAVDILATDDPNFSQEDQQDTQIYEKHDNLLHGTKKKKEKMVSAAFMKKYIHVAKIIKPVLTQESATYIAEEYSRLRSQDSMSSDTARTSPVTARTLETLIRLATAHAKARMSKTVDLQDAEEAVELVQYAYFKKVLEKEKKRKKRSEDESETEDEEEKSQEDQEQKRKRRKTRQPDAKDGDSYDPYDFSDTEEEMPQVHTPKTADSQETKESQKVELSESRLKAFKVALLDVFREAHAQSIGMNRLTESINRDSEEPFSSVEIQAALSKMQDDNQVMVSEGIIFLI
For the molecule B3, the binding result in test [1] and in test [2] was “binds” in each case.

B4: MCM6, endogenous (protein, UniProt Q14566 1-821)
chain: MDLAAAAEPGAGSQHLEVRDEVAEKCQKLFLDFLEEFQSSDGEIKYLQLAEELIRPERNTLVVSFVDLEQFNQQLSTTIQEEFYRVYPYLCRALKTFVKDRKEIPLAKDFYVAFQDLPTRHKIRELTSSRIGLLTRISGQVVRTHPVHPELVSGTFLCLDCQTVIRDVEQQFKYTQPNICRNPVCANRRRFLLDTNKSRFVDFQKVRIQETQAELPRGSIPRSLEVILRAEAVESAQAGDKCDFTGTLIVVPDVSKLSTPGARAETNSRVSGVDGYETEGIRGLRALGVRDLSYRLVFLACCVAPTNPRFGGKELRDEEQTAESIKNQMTVKEWEKVFEMSQDKNLYHNLCTSLFPTIHGNDEVKRGVLLMLFGGVPKTTGEGTSLRGDINVCIVGDPSTAKSQFLKHVEEFSPRAVYTSGKASSAAGLTAAVVRDEESHEFVIEAGALMLADNGVCCIDEFDKMDVRDQVAIHEAMEQQTISITKAGVKATLNARTSILAAANPISGHYDRSKSLKQNINLSAPIMSRFDLFFILVDECNEVTDYAIARRIVDLHSRIEESIDRVYSLDDIRRYLLFARQFKPKISKESEDFIVEQYKHLRQRDGSGVTKSSWRITVRQLESMIRLSEAMARMHCCDEVQPKHVKEAFRLLNKSIIRVETPDVNLDQEEEIQMEVDEGAGGINGHADSPAPVNGINGYNEDINQESAPKASLRLGFSEYCRISNLIVLHLRKVEEEEDESALKRSELVNWYLKEIESEIDSEEELINKKRIIEKVIHRLTHYDHVLIELTQAGLKGSTEGSESYEEDPYLVVNPNYLLED
As for B4, the binding entry in test [1] and in test [2] was “binds” in each case.

B5: ORC2, endogenous (protein, UniProt Q13416 1-577)
chain: MSKPELKEDKMLEVHFVGDDDVLNHILDREGGAKLKKERAQLLVNPKKIIKKPEYDLEEDDQEVLKDQNYVEIMGRDVQESLKNGSATGGGNKVYSFQNRKHSEKMAKLASELAKTPQKSVSFSLKNDPEITINVPQSSKGHSASDKVQPKNNDKSEFLSTAPRSLRKRLIVPRSHSDSESEYSASNSEDDEGVAQEHEEDTNAVIFSQKIQAQNRVVSAPVGKETPSKRMKRDKTSDLVEEYFEAHSSSKVLTSDRTLQKLKRAKLDQQTLRNLLSKVSPSFSAELKQLNQQYEKLFHKWMLQLHLGFNIVLYGLGSKRDLLERFRTTMLQDSIHVVINGFFPGISVKSVLNSITEEVLDHMGTFRSILDQLDWIVNKFKEDSSLELFLLIHNLDSQMLRGEKSQQIIGQLSSLHNIYLIASIDHLNAPLMWDHAKQSLFNWLWYETTTYSPYTEETSYENSLLVKQSGSLPLSSLTHVLRSLTPNARGIFRLLIKYQLDNQDNPSYIGLSFQDFYQQCREAFLVNSDLTLRAQLTEFRDHKLIRTKKGTDGVEYLLIPVDNGTLTDFLEKEEEEA
Take B5: the binding entry in test [2] is recorded as “no binding”.
